Assay results: patent publication US9926375B2, “Anti-endoglin antibodies and uses thereof” (Tracon Pharmaceuticals, Inc., priority 2014, dated 2018)
At least one compound was matched to its structure with a doubt left.

Test system: BLM-induced pulmonary fibrosis model mice
Experiment: Bleomycin-induced pulmonary fibrosis model
Assay type: in vivo, mouse
Conditions: vs isotype-control antibody group (isotype-control vs disease control group); day 21; Bonferroni, P<0.05
Protocol: Pathogen-free 7 weeks old female C57BL/6J mice were obtained from Japan SLC, Inc. (Japan). At day 0, 60 mice were induced to develop pulmonary fibrosis by a single intratracheal administration of bleomycin sulphate (BLM, Nippon Kayaku, Japan) in saline at a dose of 3 mg/kg, in a volume of 50 μL per animal using Microsprayer® (Penn-Century, USA).
BLM-induced pulmonary fibrosis model mice were randomized into 4 groups of 12 mice based on the body weight on the day before the start of treatment.
Group 3 (M1043 Antibody): Twelve BLM-induced pulmonary fibrosis model mice were intravenously administered vehicle supplemented with M1043 at a dose of 10 mg/kg twice weekly at day 7, 10, 14 and 17.
Group 4 (TRC105 human/mouse chimeric antibody): Twelve BLM-induced pulmonary fibrosis model mice were intravenously administered vehicle supplemented with TRC105 at a dose of 10 mg/kg twice weekly at day 7, 10, 14 and 17.
Group 5 (BIBF1120 inhibitor for Idiopathic Pulmonary Fibrosis—positive control, Boehringer Ingelheim): Twelve BLM-induced pulmonary fibrosis model mice were orally administered 1% CMC supplemented with BIBF1120 at a dose of 100 mg/kg once daily from day 7 to 21. […]
Histological analysis of lung sections was conducted by practitioners who are not aware of the Group identity. Masson's Trichrome staining is conducted and an Ashcroft Score estimate was determined. […]

COC(=O)c1ccc2c(c1)NC(=O)/C2=C(\Nc1ccc(N(C)C(=O)CN2CCN(C)CC2)cc1)c1ccccc1 [BIBF1120, reference compound]
Ashcroft score, comparison between groups: significantly lower
